In all, about 33,000 sequences were measured (“E-score (-0.5 to 0.5)”: median about -0.0059, highest 2% from about 0.26 on). The list shows a part of the results.
Biological target: T1, Cin5 (UniProt P40917)
T1 sequence: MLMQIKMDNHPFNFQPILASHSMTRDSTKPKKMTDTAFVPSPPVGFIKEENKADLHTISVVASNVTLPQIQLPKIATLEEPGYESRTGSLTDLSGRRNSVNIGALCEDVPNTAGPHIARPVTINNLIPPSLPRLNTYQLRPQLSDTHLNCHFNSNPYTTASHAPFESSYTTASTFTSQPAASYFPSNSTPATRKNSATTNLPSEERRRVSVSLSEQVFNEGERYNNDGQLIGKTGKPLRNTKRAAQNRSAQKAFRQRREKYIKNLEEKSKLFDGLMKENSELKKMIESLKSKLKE
Assay: PBM E-score (8-mer binding enrichment) (E-score (-0.5 to 0.5)); higher = stronger / more preferred TF binding
Details: protein concentration: 100 nM; construct: GST-full length
Description: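 Universal 'all 10-mer' protein binding microarrays (Agilent AMADID 015681) probed with GST-tagged S. cerevisiae TFs (full-length or DBD) made by in vitro transcription/translation (PURExpress), about 100-200 nM. Bound TF was detected with fluorescent anti-GST. Each ungapped 8-mer (which stands for itself and its reverse complement) is scored by the PBM enrichment score (E-score), a modified Wilcoxon-Mann-Whitney statistic from -0.5 to +0.5, computed with the Universal PBM Analysis Suite. Scale: above 0.35 generally sequence-specific binding.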

Sequence | PBM E-score
GCGTGTAA | -0.057
ACGGTCCG | -0.279
GGGCACAA | -0.0694
GTCGAAGA | 0.0765
GGGAGAGA | -0.253
CTCTAGAA | -0.143
AGCTTTAG | -0.134
CCTTGGGC | -0.258
TCATATAA | 0.197
GTACATCA | 0.103
TAAATTCA | 0.0481
CCACCAGA | 0.061
AGCTGCCT | -0.214
ATCGAATA | 0.0729
CAATCCAC | 0.0216
TAAGCTGA | 0.267
ACCGTGTA | 0.0936
AACCGGTA | -0.00751
TAACCTAA | 0.0636
CTCACCAC | -0.115
CTGAAGAA | -0.0731
GAATTGGC | 0.0496
ATAAACAT | 0.185
GTATGCAA | 0.143
CTGTAAGA | -0.00022

Sequence | PBM E-score
CCGTCTAA | 0.0286
AAGGCGAG | -0.115
GTTGAAAA | 0.004
ATGGCCAC | -0.19
TAAGAGGA | -0.0151
ATGAAAAT | 0.165
AAAATTAC | 0.174
CAGTTCAG | 0.058
CGTCCCAA | -0.0522
CGCCGCGA | 0.125
GTTAACTA | 0.205
CTCACCCC | -0.128
CATCTCCC | -0.0154
GCAAAAAC | 0.0399
AGGCCATG | 0.0399
ACCTATAG | 0.0455
CTCAAGAC | -0.175
TCAGTAAA | 0.11
CCTCATAC | 0.101
AGTGACTA | -0.0808
ACAGATGC | -0.0868
AACCGACT | -0.0664
CGACTGCA | -0.0752
AACAAACC | 0.144
GCGGTCCC | -0.247

Sequence | PBM E-score
TCTCTACA | -0.00517
CAGAGAAC | -0.117
TTAGGGAA | -0.0213
AGGCACGA | -0.0654
ATGAAAGC | 0.134
CCTCGATA | 0.127
AGTCTGGA | 0.041
AACAAACG | 0.0102
GCTTCCTA | -0.0299
ACGTGCCC | -0.0588
GCCGCCCA | -0.155
GACTGCCA | 0.00758
AATGAAGG | 0.0467
AGTCAAAG | -0.0858
ACGCACAA | 0.109
CCTAGAGC | -0.152
CACGCCTA | -0.19
CGGATTAC | 0.122
GTTTCACA | 0.0881
CGTTGGAG | -0.105
GGCTTTCA | 0.0353
CAGATTTC | 0.0552
ACAGTTTA | -0.0529
GAGCACCC | -0.229
CAAGTCAC | -0.00125

Sequence | PBM E-score
GGGGATAC | -0.0148
CGCAACGC | -0.0239
GCGCACAC | -0.00911
GTCAGGGA | -0.114
GCTCGGTA | -0.138
AGCATAAC | 0.0567
TACGGATA | 0.0313
ATTGACTC | 0.11
ATGTTCGA | -0.0359
ACGTCCTC | -0.114
AGATACGC | 0.0106
CAAAATAA | 0.203
ATCTGAGA | -0.00608
CACATATC | 0.143
GATGACCA | -0.00607
ATTCTACC | 0.0412
CGACTGGC | -0.111
ATACAAGC | 0.254
ACTTTATA | 0.214
CAGGGTGG | -0.151
CTGTTGAC | -0.113
ACATGTGA | -0.0516
AATACACC | 0.182
CGACCTAG | 0.071
GATCATAC | 0.0203

In a second layout: entries from further up.
Sequence	PBM E-score
AGATACGC	0.0106
CAAAATAA	0.203
ATCTGAGA	-0.00608
CACATATC	0.143
GATGACCA	-0.00607
ATTCTACC	0.0412
CGACTGGC	-0.111

Additional entries.

Sequence | PBM E-score
AGGAATGG | -0.0178
AGACTTCC | -0.171
CTTTGTCA | 0.114
ACCGCAAG | 0.00418
GCGCTTCC | -0.0888
GCTTGAAA | 0.0153
ATAACGTC | 0.0919
TCGCTTCA | -0.131
GGCAGACA | -0.165
GCCCCAAA | -0.106
ACGATGTG | 0.0576
TCCTTCAA | -0.0474
TCCATCCA | -0.0186
AGCTACGA | -0.0408
CATTCTCC | -0.0533
CTCAGCCC | -0.258
AAGGCGGG | -0.193
GTCGCTCA | -0.0802
CCTAGTCC | -0.293
TCTGTACA | 0.101
AGATCTGA | 0.0167
CGATTTTC | 0.146
ACGCGTCG | 0.121
CGCGTGTA | 0.0559
AGTATTGA | 0.189

Sequence | PBM E-score
CCTCTGCG | -0.21
AAACGACA | 0.168
ACGTAAAG | 0.191
GATCAGGA | -0.0332
GATAGATA | 0.0426
AAGATGGT | 0.0214
ACAGGACT | -0.139
CGAATTGA | -0.0469
GATTGCAC | 0.119
CTCCACCC | -0.275
ACATATAG | 0.153
AAGGAACT | 0.0326
TGTGAAAA | 0.0454
AATGACGC | 0.0838
GACGCGCA | 0.00622
CGACGCGC | -0.0356
CGAACCGC | 0.0258
TATCATAA | 0.272
AGTGAGCA | -0.0506
ATCGAGAG | 0.0415
AGGGGTAA | -0.0717
AACCGGGG | -0.165
AACACCGG | 0.0101
CGAGGCGC | -0.063
CTCTGGGC | -0.136

Sequence | PBM E-score
GCCTTAAC | -0.0683
CCTGTAGC | -0.281
CTTGTGCA | 0.155
AGAGCGTA | 0.0172
TACGATGA | 0.12
ACCCTACC | -0.0598
CCACTGAC | -0.213
CCGTTTCG | 0.0547
ACAGTTCG | 0.134
AATTCGAC | -0.326
CGCACCGA | -0.0487
GATATCAC | 0.0843
CGTTGCAC | -0.0719
TGGACAAA | 0.0596
CACTGTCG | -0.125
GGCCAGCC | -0.277
CGAAGGAC | -0.185
ACAAGCTC | -0.135
TTTGAAAA | 0.0873
ATTTATTA | 0.306
ATCTCCAT | 0.0751
AATTTGAG | -0.0611

As entered above.
Value for AATTTGAG under PBM E-score: -0.0611
Value for TACGATGA under PBM E-score: 0.12
Value for ATCTCCAT under PBM E-score: 0.0751
Value for GGCCAGCC under PBM E-score: -0.277
Value for ACAGTTCG under PBM E-score: 0.134
